{"source": "paper PMC6325625", "about": "“The traffic ATPase PilF interacts with the inner membrane platform of the DNA translocator and type IV pili from Thermus thermophilus” (FEBS Open Bio, 2018)", "biological_target": "His6-PilM (soluble PilM from cells expressing His6-pilMN-Strep) (Thermus thermophilus HB27) (UniProt Q8VRL8)", "assay": "native gel or EMSA; 5-20% clear-native PAGE of purified His6-PilMN-Strep, His6-PilMNO-Strep and His6-PilM; bands of PilMN cut out and run on 14% SDS/PAGE; both purified", "note": "These are yes or no findings as the source states them, for the method shown. Sequences can lack the tags named with a protein.", "data": [{"binder": "His6-PilM (soluble PilM from cells expressing His6-pilMN-Strep) (protein, UniProt Q8VRL8 1-377) MFKSLSQLFRPRVEALGLEIGASALKLVEVSGNPPALKALASRPTPPGLLMEGMVAEPAALAQEIKELLLEARTRKRYVVTALSNLAVILRPIQVPKMPLKEMEEAVRWEAERYIPFPIDEVVLDFAPLTPLSEVQEGEQVQVMVAAARQEAVAGVLEALRGAGLVPVVLDVKPFAGLYPLEARLAEEPDRVFLVLDIGAESTSLVLLRGDKPLAVRVLTLSGKDFTEAIARSFNLDLLAAEEVKRTYGMATLPTEDEELLLDFDAERERYSPGRIYDAIRPVLVELTQELRRSLEFFRIQLEEASPEMGYLLGGGSKLRGLASLLTDTLGVNFEPVNPWEAVAVDPKRFESEQLQEIGPEFAVALGLALRGVEPLD", "values": [{"measurement": "binding", "value": "no binding"}]}]}
